Measured values reported in patent US6596727B1, “Substituted pyrimidines, processes for their preparation, and their use as pesticides and fungicides” (priority 1992, dated 2003).
Some of these results come from one statement about several compounds together. At least one structure is not confirmed: it was looked up by name or label, or the drawing left a doubt.

Columns and labels:
[1] = tested on: black bean aphid (Aphis fabae); assay: Black bean aphid spray test on field beans (Vicia faba); assay type: in vivo; conditions: 250 ppm active substance, sprayed to runoff; after 3 days
Diabrotica larvae = Diabrotica larvae soil test on wheat seedlings; assay type: in vivo; conditions: 250 ppm of the active ingredient; 1 ml pipetted onto soil; after 5 days at 21° C.

Row | SMILES | mortality of the aphids (destruction) [1] | mortality of Diabrotica larvae (effectiveness) (Diabrotica larvae)
1 | COCc1ncnc(NC2CCC(C(C)(C)C)CC2)c1OC (mixture of isomers) [Example 9] | 100% | 
2 | COCc1ncnc(NC2CCC(C(C)(C)C)CC2)c1OC (mixture of isomers) [Example 17] |  | up to 100%
3 | COCc1ncnc(NC2CCC(c3ccccc3)CC2)c1OC (mixture of isomers) [Example 93] | 100% | up to 100%
4 | COCc1ncnc(OC2CCC(C(C)(C)C)CC2)c1OC (stereo not shown) [Example 13] | 100% | 
5 | CC(C)(C)C1CCC(Oc2ncnc3c2CCCC3)CC1 (stereo not shown) [Example 19] | 100% | up to 100%
6 | COCc1ncnc(NC2CCC(C(C)C)CC2)c1OC (stereo not shown) [Example 25] | 100% | up to 100%
7 | CCC(C)(C)C1CCC(Nc2ncnc(COC)c2OC)CC1 (stereo not shown) [Example 30] | 100% | 
8 | COCc1ncnc(NC2CCC(C3CCCCC3)CC2)c1OC (stereo not shown) [Example 55] | 100% | 
9 | COCc1ncnc(NC2CCC3CCCCC3C2)c1OC (stereo not shown) [Example 80] | 100% | 
10 | c1ccc(C2CCC(Oc3ncnc4c3CCCC4)CC2)cc1 (stereo not shown) [Example 106] | 100% | 
